# From PubChem BioAssay AID504467 (National Center for Advancing Translational Sciences (NCATS), 2011)
# The campaign covered roughly 330,000 compounds. About 7,700 (2.3%) were called active. Inconclusive results, whose numbers are uncertain, are shown with a selection of clear calls. Calls follow the shape of the dose curve; as a rule, active = well fitted inhibition curve with a large enough effect; inconclusive = small, poorly fitted or top-dose-only effect, or effect the other way; inactive = flat fitted curve, though single readings scatter. Where the call is inconclusive, the potency comes from a doubtful curve fit.
# Assay: qHTS screen for small molecules that inhibit ELG1-dependent DNA repair in human embryonic kidney (HEK293T) cells expressing luciferase-tagged ELG1; also: nearly all actives have a fitted effect of over 55% in size
# Settings: HEK293T ELG1-luciferase reporter, luminescence, 16 h, DNA damage induced by 5-fluorouridine; activity change, negative = inhibition: at 46.1 µM (top of the series)
# Method in brief: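 HEK293T cells expressing luciferase-tagged ELG1 (2,000/well) received 5-Fluorouridine plus compound or DMSO for 16 hr at 37 °C. Luciferase was read by ONE-Glo luminescence after 30 min at room temperature.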
# % is scaled to controls: 0 for no effect and ±100 for the full control effect; potency is read from the fitted curve at half-maximal effect.
SMILES,Potency,"activity change, negative = inhibition"
COc1cccc(OC)c1C(=O)Nc1cc(C)nn1-c1nc2ccccc2[nH]1,"inconclusive: 4.61 µM [inhibitor, partial curve, poor fit]",
COC(=O)C1=C(O)/C(=C\c2ccc(OCC(=O)Nc3ccc(OC)cc3)cc2)N=C1C,,inactive: 13.1%
COc1cccc(NC(=O)C2CCC(CNS(=O)(=O)c3cccc4cccnc34)CC2)c1 (stereo unspecified),,inactive: -15.1%
COc1ccc2nc(C)[nH]c(=O)c2c1,,inactive: 13.8%
CN1C(C(=O)NCc2cccc(C(F)(F)F)c2)CC2Cn3c(nc4cc(Cl)c(Cl)cc43)C21 (stereo unspecified),"inconclusive: 29.1 µM [inhibitor, single point]",
Cc1ccc(/C=N/NC(=S)N2CCOCC2)cc1,"inconclusive: 16.4 µM [activator, single point]",
COc1cccc(Nc2nc(N)nc(CCl)n2)c1,"inconclusive: 25.9 µM [inhibitor, single point]",
Cc1cc(N)c(-n2cc3c(=O)n(C)c(=O)n(C)c3c2)cc1C,"inconclusive: 11.6 µM [activator, partial curve]",
O=C(/C=C/c1ccc(Cl)cc1)NCc1cccs1,"inconclusive: 18.4 µM [activator, partial curve]",
CC1CCN(C(=O)CNC(=O)c2cccc(OC(F)F)c2)CC1,"inconclusive: 20.6 µM [activator, single point]",
O=C1C(=C2SCCCS2)CC/C1=C\c1ccc(F)cc1,"inconclusive: 0.103 µM [activator, full curve, poor fit]",
O=C(Nc1cccc(C(F)(F)F)c1)C1CCCN(c2ncccn2)C1 (stereo unspecified),,inactive: -12.1%
CC(C)(C)N(Cc1ccccc1)C(=O)COC(=O)C1CCN(c2ccc(C(F)(F)F)cn2)CC1,,inactive: 12.3%
CCc1ccc(C2C(C#N)=C(N)Oc3cc(N)ccc32)cc1 (stereo unspecified),"inconclusive: 35.5 µM [inhibitor, single point]",
Cc1ccc(/C=C/c2nnc(-c3ccccc3)o2)cc1,"inconclusive: 20.6 µM [activator, partial curve]",
COc1ccc(C(C[N+](=O)[O-])c2c(-c3ccccc3)cc3ccccn23)cc1 (stereo unspecified),"inconclusive: 7.31 µM [inhibitor, partial curve, poor fit]",
CC(=O)Nc1ccc(Nc2cc(C(C)C)nc3c(-c4ccccc4)c(C)nn23)cc1,"inconclusive: 23.1 µM [inhibitor, partial curve, poor fit]",
O=C1N/C(=C/c2cccn2-c2ccccc2)C(=O)N1c1cccc(Cl)c1,"inconclusive: 29.1 µM [activator, single point]",
COc1cc2nc(CN(C)Cc3nc4ccccc4c(=O)[nH]3)[nH]c(=O)c2cc1OC,"inconclusive: 2.59 µM [inhibitor, partial curve, poor fit]",
CC(=O)O[C@H]1C(=O)[C@@]2(C)[C@H]([C@H](OC(=O)c3ccccc3)[C@]3(O)C[C@H](OC(=O)[C@H](O)[C@@H](NC(=O)c4ccccc4)c4ccccc4)C(C)=C1C3(C)C)[C@]1(OC(C)=O)CO[C@@H]1C[C@@H]2O,,inactive: -1.55%
CCOC(=O)c1cn[nH]c1NC(=S)Nc1ccccc1,"inconclusive: 3.66 µM [activator, full curve]",
CCN(CC)Cc1c(C(=O)N/N=C/c2cccs2)nnn1-c1nonc1N,,inactive: 4.52%
CC1=NN(c2ccccc2)C(=O)/C1=C\C=C\c1ccccc1,active: 18.3 µM,
N=c1n(Cc2ccc(Cl)cc2)c2ccccc2n1CC(O)c1ccco1 (stereo unspecified),"inconclusive: 14.6 µM [inhibitor, partial curve]",

SMILES,Potency,"activity change, negative = inhibition"
COc1ccc2ccccc2c1CN1CCSCC1,,inactive: -18.8%
O=S(=O)(c1cccc(-c2n[nH]c(=S)n2-c2ccc(OC(F)(F)F)cc2)c1)N1CCOCC1,"inconclusive: 18.3 µM [inhibitor, partial curve, poor fit]",
CCCCNc1ncnc2c1cnn2Cc1ccc(Cl)cc1,"inconclusive: 25.9 µM [inhibitor, single point]",
Cn1c(-c2csc(-c3ccccc3)n2)n[nH]c1=S,,inactive: 20.2%
CC(NC(=O)Nc1ccc(Cl)cc1)C(c1cccs1)N1CCOCC1 (stereo unspecified),,inactive: -6.48%
COc1ccc(NC(=O)/C=C/c2ccc(F)cc2)cn1,"inconclusive: 18.4 µM [activator, partial curve]",
COc1ccc(OC)c(NC(=O)CCOc2cccc(C)c2)c1,"inconclusive: 18.3 µM [inhibitor, partial curve]",
COc1ccc(CCNC(=O)C(=O)NCC2OCCN2S(=O)(=O)c2ccc3c(c2)OCCO3)cc1OC (stereo unspecified),active: 11.6 µM,
O=S(=O)(c1ccc(NC(=S)N/N=C/c2c3ccccc3cc3ccccc23)cc1)N1CCOCC1,"inconclusive: 5.17 µM [inhibitor, full curve]",
CCn1c(=NC(=O)c2ccc(S(=O)(=O)N3CCOCC3)cc2)sc2cccc(OC)c21,"inconclusive: 12.6 µM [inhibitor, partial curve, poor fit]",
CCOC(=O)C(=O)NNc1ccc(C)cc1,,inactive: 23.2%
Cn1cnc2c(cnn2-c2ccccc2)c1=O,"inconclusive: 20.6 µM [activator, partial curve]",
O=C1C=C(c2ccc(Cl)nc2)C[C@@H](c2ccc3c(c2)OCO3)C1,"inconclusive: 25.9 µM [inhibitor, single point]",
CN(C)C(=O)C#Cc1ccccc1,,inactive: 17%
[O-]/[N+](=C/c1ccc(F)cc1)c1ccccc1,,inactive: -2.58%
CN(C)/C=N/c1ncn(-c2ncc(C(F)(F)F)cc2Cl)n1,"inconclusive: 20.6 µM [activator, partial curve]",
c1ccc(C2=Nc3ccccc3OC2)cc1,"inconclusive: 6.51 µM [activator, single point]",
O=C(NCCc1ccc(F)cc1)C(=O)NCC1CCCN1S(=O)(=O)c1ccccc1 (stereo unspecified),"inconclusive: 18.3 µM [inhibitor, single point]",
CCOC(=O)c1c(-c2cccs2)csc1NC(=O)CN1CCOCC1,"inconclusive: 23.1 µM [inhibitor, single point]",
COc1ccccc1C(CCNCc1ccc(N(C)C)cc1)c1ccc(OC(C)C)cc1 (stereo unspecified),,inactive: -4.95%
Cn1c(SCc2ccccc2Cl)nnc1-c1cnccn1,"inconclusive: 20.6 µM [activator, partial curve]",
CNC(=O)C1CCC(=O)N1Cc1ccccc1Cl (stereo unspecified),,inactive: -5.19%
CC1/C(=N/O)CC(c2ccccc2)NC1c1ccccc1 (stereo unspecified),,inactive: -3.13%
COc1ccc(N(C)S(=O)(=O)c2cccc(C(=O)Nc3ccc(-n4cnnn4)cc3)c2)cc1,active: 18.4 µM,

# A stretch from the list above, as a working copy:
SMILES,Potency,"activity change, negative = inhibition"
COc1ccc2ccccc2c1CN1CCSCC1,,inactive: -18.8%
O=S(=O)(c1cccc(-c2n[nH]c(=S)n2-c2ccc(OC(F)(F)F)cc2)c1)N1CCOCC1,"inconclusive: 18.3 µM [inhibitor, partial curve, poor fit]",
CCCCNc1ncnc2c1cnn2Cc1ccc(Cl)cc1,"inconclusive: 25.9 µM [inhibitor, single point]",
Cn1c(-c2csc(-c3ccccc3)n2)n[nH]c1=S,,inactive: 20.2%
CC(NC(=O)Nc1ccc(Cl)cc1)C(c1cccs1)N1CCOCC1 (stereo unspecified),,inactive: -6.48%
COc1ccc(NC(=O)/C=C/c2ccc(F)cc2)cn1,"inconclusive: 18.4 µM [activator, partial curve]",

# Further compounds

SMILES,Potency,"activity change, negative = inhibition"
CCCn1c(N)c(C(=O)COC(=O)c2c(C)noc2C)c(=O)n(C)c1=O,active: 23.1 µM,
NC(=O)CSc1nnc(-c2cc(-c3cccs3)nc3ccccc23)o1,"inconclusive: 29.1 µM [activator, single point]",
O=C1CC(Sc2nnc(-c3ccccc3O)o2)C(=O)N1c1ccccc1 (stereo unspecified),,inactive: 0.478%
O=C1CCC(C(=O)N(CCO)Cc2ccccc2)CN1CCCN1CCOCC1 (stereo unspecified),"inconclusive: 16.4 µM [activator, partial curve, poor fit]",
CCn1nnc(NC(=O)c2ccc(Br)o2)n1,"inconclusive: 11.6 µM [activator, partial curve, poor fit]",
Cc1nc2ccc(NC(=S)NC(C)C)cc2nc1C,"inconclusive: 29.1 µM [activator, single point]",
Cc1cccc(NC(=S)NCCc2ccccc2)n1,"inconclusive: 32.6 µM [inhibitor, partial curve, poor fit]",
CN(c1ccccc1)S(=O)(=O)c1cccc(C(=O)Nc2ccc(N3CCOCC3)cc2)c1,active: 18.3 µM,
CC(Sc1nc(-c2ccccc2)cc(C(F)(F)F)n1)C(=O)N1CCOCC1 (stereo unspecified),"inconclusive: 32.6 µM [inhibitor, partial curve, poor fit]",
Cc1sc2nc(C3CC3)nc(SCC(=O)N3CC(=O)Nc4ccccc43)c2c1C,"inconclusive: 29.1 µM [inhibitor, single point]",
COc1cccc(CC(=O)Nc2nc(-c3cccnc3)cs2)c1,"inconclusive: 11.6 µM [inhibitor, partial curve, poor fit]",
COc1ccc(-c2cc(C(=O)NCCCN3CCCC3=O)c3ccccc3n2)cc1OC,active: 20.6 µM,
COc1ccc(-c2noc3c2-c2nc(-c4c(F)cccc4F)sc2CC3)cc1,,inactive: -16.2%
COC(=O)c1ccccc1NC(=O)n1cc(C)cn1,,inactive: -1.58%
Cc1ccc(NC(=O)Cc2nc(CCl)cs2)cc1,,inactive: 19.2%
O=C(Nc1cccc(Oc2c(F)c(F)c(F)c(F)c2F)c1)N1C[C@@H]2C[C@@H](C1)c1cccc(=O)n1C2,"inconclusive: 18.4 µM [activator, single point]",
Cc1ccc(NC(=O)c2oc3ccccc3c2C)c([N+](=O)[O-])c1,"inconclusive: 2.59 µM [activator, full curve]",
CCN(CC)CCn1c2ccccc2c2cnc(N)c(C#N)c21,"inconclusive: 7.31 µM [inhibitor, partial curve]",
Cn1ccnc1SCC(=O)c1ccc([N+](=O)[O-])cc1,,inactive: -1.2%
O=C(C1=NOC(CNc2ncc(C(F)(F)F)cc2Cl)C1)N1CCOCC1 (stereo unspecified),,inactive: 4.21%
COc1ccc(C(=O)NC2CCCc3c2cnn3-c2ccccc2F)o1 (stereo unspecified),"inconclusive: 14.6 µM [activator, partial curve, poor fit]",
O=S(Cc1cc(Oc2ccccc2)nc(-c2ccccc2)n1)c1ccccc1 (stereo unspecified),"inconclusive: 32.6 µM [inhibitor, single point]",
O/N=C/c1ccnc(SCc2ccccc2)n1,"inconclusive: 20.6 µM [activator, single point]",
